Literature values, collected in patent US6464958B1, “Process for the preparation of suspensions of drug particles for inhalation delivery” (Chiesi Farmaceutici S.p.A., priority 1998, dated 2002).
Some entries share one result that the patent states for a list of compounds.

Settings: micronised steroids, radiation doses 4.5 and 15 Mrad; cited from earlier work

For CC(=O)OCC(=O)[C@@]1(O)CC[C@H]2[C@@H]3CCC4=CC(=O)CC[C@]4(C)[C@H]3[C@@H](O)C[C@@]21C [hydrocortisone acetate], the degradation degree is given as “below 1%”.
